Like-named read-outs stand apart in the source and are kept apart here. Results are given in words; binding and its absence hold for the method and conditions named. Some entries that bind do so weakly or less than the wild type.
How the values were obtained:
[1] = biological target: HAUSP^62-560 (TRAF-Catalytic-domain) (human) (UniProt Q93009); assay: NMR chemical shift perturbation
[2] = biological target: HAUSP^62-560 (TRAF-Catalytic-domain) (human) (UniProt Q93009)

By UniProt entry, the sequences of proteins in these tests, tags left out. Where a name states a change or a piece, a line headed by the entry shows the natural chain unless it says otherwise.
UniProt Q93009: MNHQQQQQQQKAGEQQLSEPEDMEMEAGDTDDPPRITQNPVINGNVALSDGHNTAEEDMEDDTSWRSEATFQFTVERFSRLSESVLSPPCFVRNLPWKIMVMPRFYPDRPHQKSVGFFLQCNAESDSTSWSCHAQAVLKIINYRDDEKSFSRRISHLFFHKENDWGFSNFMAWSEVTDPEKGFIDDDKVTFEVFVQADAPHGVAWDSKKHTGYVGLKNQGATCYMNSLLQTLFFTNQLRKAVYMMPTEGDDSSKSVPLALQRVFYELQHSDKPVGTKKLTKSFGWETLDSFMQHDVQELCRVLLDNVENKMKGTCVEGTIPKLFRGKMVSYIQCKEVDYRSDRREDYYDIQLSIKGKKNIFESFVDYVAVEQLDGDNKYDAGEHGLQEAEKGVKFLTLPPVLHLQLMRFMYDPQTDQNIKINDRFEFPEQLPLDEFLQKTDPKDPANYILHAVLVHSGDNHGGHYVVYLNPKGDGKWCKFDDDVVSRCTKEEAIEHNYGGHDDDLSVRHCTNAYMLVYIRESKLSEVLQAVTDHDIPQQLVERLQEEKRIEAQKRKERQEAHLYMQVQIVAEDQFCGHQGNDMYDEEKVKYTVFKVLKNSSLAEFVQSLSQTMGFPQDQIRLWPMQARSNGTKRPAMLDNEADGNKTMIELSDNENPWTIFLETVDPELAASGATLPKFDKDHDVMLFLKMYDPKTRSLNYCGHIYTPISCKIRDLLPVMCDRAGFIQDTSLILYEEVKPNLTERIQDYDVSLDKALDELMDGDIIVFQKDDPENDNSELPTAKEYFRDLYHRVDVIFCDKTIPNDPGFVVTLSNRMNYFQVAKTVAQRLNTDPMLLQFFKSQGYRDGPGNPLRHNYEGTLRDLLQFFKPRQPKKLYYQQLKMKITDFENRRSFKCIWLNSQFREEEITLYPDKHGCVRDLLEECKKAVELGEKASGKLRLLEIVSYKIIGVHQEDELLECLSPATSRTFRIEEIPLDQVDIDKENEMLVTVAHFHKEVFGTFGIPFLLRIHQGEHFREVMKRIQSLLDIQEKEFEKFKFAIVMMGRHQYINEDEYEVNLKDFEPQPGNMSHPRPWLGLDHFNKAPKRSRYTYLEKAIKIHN
UniProt Q2HR73: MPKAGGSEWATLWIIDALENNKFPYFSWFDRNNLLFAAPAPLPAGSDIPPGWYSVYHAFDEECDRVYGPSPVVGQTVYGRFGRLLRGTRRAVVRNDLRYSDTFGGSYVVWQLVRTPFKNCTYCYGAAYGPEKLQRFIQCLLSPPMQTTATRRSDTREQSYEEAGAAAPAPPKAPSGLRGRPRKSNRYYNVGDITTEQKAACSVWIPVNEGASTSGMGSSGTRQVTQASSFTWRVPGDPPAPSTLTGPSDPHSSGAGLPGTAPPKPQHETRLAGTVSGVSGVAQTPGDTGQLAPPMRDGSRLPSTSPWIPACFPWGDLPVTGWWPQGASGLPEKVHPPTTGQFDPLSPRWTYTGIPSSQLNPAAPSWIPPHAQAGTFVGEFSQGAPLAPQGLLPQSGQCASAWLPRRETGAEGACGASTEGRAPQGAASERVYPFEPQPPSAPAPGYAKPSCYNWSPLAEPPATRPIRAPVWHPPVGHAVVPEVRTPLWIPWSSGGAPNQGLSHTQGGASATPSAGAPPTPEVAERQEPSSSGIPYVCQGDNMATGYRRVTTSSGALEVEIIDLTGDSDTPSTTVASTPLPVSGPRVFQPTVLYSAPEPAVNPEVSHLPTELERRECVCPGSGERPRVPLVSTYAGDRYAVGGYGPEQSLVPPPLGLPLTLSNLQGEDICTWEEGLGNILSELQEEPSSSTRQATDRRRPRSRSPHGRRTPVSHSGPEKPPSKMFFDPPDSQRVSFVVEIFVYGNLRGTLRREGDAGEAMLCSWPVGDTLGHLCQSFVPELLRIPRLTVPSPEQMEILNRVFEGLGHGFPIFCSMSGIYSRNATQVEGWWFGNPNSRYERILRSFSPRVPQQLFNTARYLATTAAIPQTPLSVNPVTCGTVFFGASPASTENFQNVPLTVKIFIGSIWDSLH

vIRF4^153-256 (from UniProt Q2HR73 153-256)
binding [1]: binds
binding [2]: binds

— patent US20130330358A1, “CRYSTAL STRUCTURE AND PEPTIDE INHIBITORS OF HAUSP DEUBIQUITINASE” (priority 2011, published 2013)
